Measurements reported in PubChem BioAssay AID1053208 (Peter MacCallum Cancer Centre, 2014)
Screen: 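Find knock-downs that sensitise mouse osteosarcoma cells to doxorubicin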 (primary screen). Cells: mouse osteosarcoma cells, early-passage culture from an engineered mouse model of fibroblastic bone tumour. Reagents: siRNA pool against mouse genes, 40 nM. Duration: about 120 h (48 h before drug, then 72 h with drug). Treatment: doxorubicin 100 nM for 72 h, roughly 30-40% inhibitory dose. Measured: 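Luminescent ATP signal taken as viability with or without 100 nM doxorubicin for 72 h; mean of two wells set against non-targeting siRNA and turned into robust z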. Reading the numbers: viability z-score with doxorubicin: higher = more viable cells under doxorubicin; viability z-score without drug: higher = more viable cells with knock-down alone; z-score of drug to no-drug ratio: higher = less drug sensitisation by knock-down. Hit rule: 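a pool counts as active when its viability z-score with doxorubicin is -2 or below and its z-score without drug lies between -2 and 2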.
In all, the deposit lists about 17,000 reagents; below is a random part of them. Over the whole deposit, 788 (4.7%) were called active. 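Calls rest on z-score classes alone; an extra cut-off of viability at most 70% of control was not applied to them.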 Not all columns of the deposit are shown. No sequences are given here.

| target gene | combined z-score class | viability z-score with doxorubicin | viability z-score without drug | z-score of drug to no-drug ratio | Call |
| --- | --- | --- | --- | --- | --- |
| Tns2 | no change with or without drug | -0.22 | 0.51 | -0.45 | inactive |
| Orai2 | no change with or without drug | 0.11 | 0.51 | -0.11 | inactive |
| Cdc37 | no change with or without drug | -0.11 | 1.01 | -0.67 | inactive |
| Cdh23 | no change with or without drug | 0.45 | 1.18 | -0.22 | inactive |
| Tbc1d25 | no change with or without drug | 1.24 | -1.18 | 2.36 | inactive |
| Fbxo46 | no change with or without drug | -0.56 | 1.01 | -1.12 | inactive |
| Foxo4 | no change with or without drug | 0 | 1.01 | -0.56 | inactive |
| Net1 | no change with or without drug | 1.12 | 0.17 | 1.12 | inactive |
| Pramel6 | no change with or without drug | 0.67 | 0.51 | 0.45 | inactive |
| Spz1 | no change with or without drug | 0.67 | 0.67 | 0.34 | inactive |
| Ifnl3 | no change with or without drug | 0.9 | 1.35 | 0.11 | inactive |
| Tekt1 | low cell count with and without drug | -2.25 | -2.87 | -0.34 | inactive |
| Itm2a | no change with or without drug | -1.24 | 0.17 | -1.35 | inactive |
| Dst | high cell count with doxorubicin only | 2.47 | 1.18 | 1.8 | inactive |
| Rpl37a | low cell count with and without drug | -5.51 | -3.71 | -4.05 | inactive |
| Mospd3 | no change with or without drug | -1.57 | -1.85 | -0.34 | inactive |
| Ndufa3 | no change with or without drug | -0.22 | -1.52 | 1.01 | inactive |
| Fam178b | no change with or without drug | 0 | 0.51 | -0.22 | inactive |
| Orc5 | no change with or without drug | 1.12 | 1.18 | 0.45 | inactive |
| Eppk1 | no change with or without drug | 0.22 | 0.17 | 0.22 | inactive |
| Hrob | no change with or without drug | 0.45 | 0.17 | 0.45 | inactive |
| Cep57l1 | no change with or without drug | 0.22 | 1.35 | -0.56 | inactive |
| Apoo | no change with or without drug | -0.22 | 0 | -0.11 | inactive |
| Vmn1r202 | no change with or without drug | -1.35 | -0.51 | -1.01 | inactive |
| Esam | no change with or without drug | -1.01 | 0.34 | -1.12 | inactive |
| Gys2 | high cell count with doxorubicin only | 2.47 | 1.35 | 1.69 | inactive |
| Pkn1 | no change with or without drug | 0 | 0.17 | 0 | inactive |
| Pgam2 | high cell count with and without drug | 2.47 | 3.71 | 0.11 | inactive |
| Nt5c3 | no change with or without drug | 0.79 | -0.17 | 1.01 | inactive |
| Pard6b | no change with or without drug | 0.9 | 1.52 | 0 | inactive |
| Frs2 | low cell count with doxorubicin only | -3.04 | -1.18 | -2.47 | active |
| Cpb2 | no change with or without drug | 0.67 | 0.17 | 0.67 | inactive |
| Calr | no change with or without drug | 0.34 | 0.34 | 0.22 | inactive |

8 entries already listed, ordered by “z-score of drug to no-drug ratio”, descending.
| target gene | combined z-score class | viability z-score with doxorubicin | viability z-score without drug | z-score of drug to no-drug ratio | Call |
| --- | --- | --- | --- | --- | --- |
| Dst | high cell count with doxorubicin only | 2.47 | 1.18 | 1.8 | inactive |
| Ndufa3 | no change with or without drug | -0.22 | -1.52 | 1.01 | inactive |
| Orc5 | no change with or without drug | 1.12 | 1.18 | 0.45 | inactive |
| Fam178b | no change with or without drug | 0 | 0.51 | -0.22 | inactive |
| Tekt1 | low cell count with and without drug | -2.25 | -2.87 | -0.34 | inactive |
| Mospd3 | no change with or without drug | -1.57 | -1.85 | -0.34 | inactive |
| Itm2a | no change with or without drug | -1.24 | 0.17 | -1.35 | inactive |
| Rpl37a | low cell count with and without drug | -5.51 | -3.71 | -4.05 | inactive |

The listing continues.
| target gene | combined z-score class | viability z-score with doxorubicin | viability z-score without drug | z-score of drug to no-drug ratio | Call |
| --- | --- | --- | --- | --- | --- |
| Ubl4b | high cell count without drug only | -0.11 | 2.53 | -1.46 | inactive |
| Pde6d | no change with or without drug | 0.79 | -0.84 | 1.57 | inactive |
| Hes6 | no change with or without drug | 0.34 | -1.18 | 1.35 | inactive |
| Sdr42e1 | no change with or without drug | -1.12 | 0.84 | -1.57 | inactive |
| Lce1d | high cell count with doxorubicin only | 2.25 | 1.52 | 1.35 | inactive |
| Ddi2 | no change with or without drug | -0.34 | 1.52 | -1.12 | inactive |
| Or10ak16 | no change with or without drug | 0.45 | 1.52 | -0.45 | inactive |
| Rdh7 | no change with or without drug | -0.22 | -1.18 | 0.79 | inactive |
| Rras | no change with or without drug | -0.9 | 0.51 | -1.12 | inactive |
| E130308A19Rik | low cell count with doxorubicin only | -2.14 | -1.01 | -1.57 | active |
| Irx5 | no change with or without drug | -0.9 | 1.52 | -1.69 | inactive |
| Kars1 | no change with or without drug | -0.79 | 0.51 | -1.01 | inactive |
| 4930432E11Rik | high cell count without drug only | 0.9 | 2.02 | -0.34 | inactive |
| Fgf18 | no change with or without drug | -0.67 | -0.51 | -0.22 | inactive |
| Bglap | no change with or without drug | 0.34 | -0.51 | 0.79 | inactive |
| Casr | high cell count with doxorubicin only | 2.25 | 1.69 | 1.24 | inactive |
| Mbtps2 | no change with or without drug | 1.57 | 0.84 | 1.12 | inactive |
